Results from PubChem BioAssay AID1347423 (Functional Genomics Laboratory (NCATS/FGL), 2020).
Among all 52,000 sequences or so, about 210 (0.4%) were called active.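 The calls were made as follows: active = gene whose silencing raises cell survival under the drug, median off-target-corrected z-score across its silencing RNAs 2 or more; inactive = the rest.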 Some of the results follow.

Assay: Resistance to Poly (ADP-Ribose) Polymerase inhibitor: Gene Identification via Genome-wide siRNA Screen
Conditions: mouse BRCA2 R2336H ES cells, olaparib, CellTiter-Glo viability; active compounds read high
Method in brief: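 Genome-wide siRNA screen (3 siRNAs/gene, 20 nM) in mouse ES cells carrying hypomorphic BRCA2 R2336H; olaparib 500 nM added 48 h post-transfection, CellTiter-Glo viability 72 h later. Normalized to plate-median negative control; MAD z-scores, gene median, seed-adjusted.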

| Sequence | z-score |
| --- | --- |
| CCACUUUCACAUGAAGUUATT against Eif2s3x | inactive: -2.28 |
| GCAGUUUUGUCAAGUUAGATT against 6430517E21Rik | inactive: 1.86 |
| CCUCACUCUAUAAUAAAGATT against MGC58341 | inactive: -0.0889 |
| GGAAAGUCUAAAGGAAAUUTT against Crnkl1 | inactive: -0.913 |
| GCGCAUCAAAAUUGAGAGUTT against Helz | inactive: -0.972 |
| GGACAAACAGGGUUAUUUATT against 1500001A10Rik | inactive: 0.488 |
| GGGAGCUCCAUUUAAAUUATT against A230103N10Rik | inactive: 0.137 |
| GGAGUAUUACGUCUGAUAUTT against Nrxn1 | inactive: -0.143 |
| GGAAAUGAGUGAAGAUGAATT against Cdc2l1 | inactive: -2.01 |
| GGACUAUCGGGAGAAAGUGTT against Ywhaq | inactive: 0.286 |
| GGUAUUGGGCCAUUGGUUGTT against MapKapk3 | inactive: 0.734 |
| CCUACUCCAAUGCUGUAGCTT against Slc27a1 | inactive: -0.591 |
| GCUUUAUUCACUCACUUUCTT against 4833446K15Rik | inactive: -0.636 |
| GGAAAGAUGAACAUGAAAGTT against Terf2 | inactive: 0.32 |
| CCAUAAGUGCCCUCGAGAUTT against Ka35 | inactive: -0.0244 |
| GGGCAACUCUGCAUACUGUTT against B230343H07Rik | inactive: -0.0335 |
| CCAACAACAGAUGCACCCUTT against Ccl11 | inactive: 2.19 |
| GAAUCAGCUGUUCUCUCACTT against 1110025I09Rik | inactive: 0.39 |
| GGUAUAAGUUGGCAAGAUCTT against Cry2 | inactive: -0.128 |
| CCACUCUAUUUGUUUGAAATT against 9130014G24 | inactive: 0.76 |
| GGUGUUCCACAAGCAAUGGTT against V1rf1 | inactive: -0.841 |
| GGAAAAGAAGCUACGCUUGTT against Rnu3ip2 | inactive: -0.829 |
| GCCAUGAAUAUUGUGCGAATT against 0610007P06Rik | inactive: -0.158 |
| GGGUUUUUGUCAAAUCUGUTT against Ttc5 | inactive: -0.694 |
| UAGCCAUCGCUCUUUCUUATT against Olfr594 | inactive: -0.973 |
| CGUGAUGUUUCGGAAGACATT against Grtp1 | inactive: 0.103 |

| Sequence | z-score |
| --- | --- |
| GGUGAUUCAGUUCAAAGUATT against U2af1-rs1 | inactive: 0.0757 |
| GCUUUUGAUCCACAGAUUUTT against Prss33 | active: 2.34 |
| GGUAGUCUGAACACUCUAATT against BC008103 | inactive: -1.56 |
| GCUGUGUAGUGUGCUAUUUTT against Slc6a15 | inactive: -2.37 |
| GGGUUGAACCUAUGUCAUCTT against 8030466O12Rik | inactive: 1.38 |
| GCUCACCACUUUUAAAACATT against Hectd2 | inactive: 0.53 |
| GGCAGUAAGAAAGGUUCAATT against Btk | inactive: -0.171 |
| GGGCUGUGUAUCAAAACAUTT against 5630401J11Rik | inactive: 1.44 |
| GUAUCCUUCACAACUGUCUTT against Olfr786 | inactive: -0.967 |
| AGCUCAUUUACAAGUGAGGTT against 1700073E17Rik | inactive: 0.513 |
| GGUCAAAACUGCUCUGCACTT against Lepr | inactive: 0.452 |
| GGAGCAUGGAACAAUAAUATT against Fli1 | inactive: -0.299 |
| GGACGAGGAGUACGAGCAATT against Nfkbia | inactive: -0.4 |
| GGAUGCAUCUAAGGAUAAGTT against Gna13 | inactive: -0.156 |
| CGGUGGUAGAUGAGAUGUUTT against Ap2s1 | inactive: -1.66 |
| CGUUCAUUUCUAAUGGAAATT against Fkbp14 | inactive: 0.965 |
| GGACAAAGAAGAUUCCAUUTT against Ctps2 | inactive: 0.21 |
| GGAAAAACCGUCCAGAUCCTT against Umpk | inactive: 0.0852 |
| GAGUGCAUUCUUUUGGCAUTT against Olfr5 | inactive: -0.738 |
| GGUAGAACCUAGAAGAGAGTT against BC024955 | inactive: 0.676 |
| GGCACAAGGCAACUGACUATT against Atp2a1 | inactive: -1.24 |
| CAAGGACGGGCUUCUAGUUTT against V1rh2 | inactive: 1.88 |
| GCAGGCUUAAUGAAUUCUATT against 6230416J20Rik | inactive: -1.08 |
| CCGUACGAUGAUAAUACCATT against 3110037K17Rik | inactive: 0.126 |
| CUCUCGAACAAUCAACCACTT against Olfr315 | inactive: -0.314 |
| GCUGAACCUGCAGCACAUCTT against Ubie | inactive: 0.253 |

Some values from the entries so far:
CGUUCAUUUCUAAUGGAAATT against Fkbp14 | z-score: inactive: 0.965
GGACGAGGAGUACGAGCAATT against Nfkbia | z-score: inactive: -0.4
GCUUUUGAUCCACAGAUUUTT against Prss33 | z-score: active: 2.34
GUAUCCUUCACAACUGUCUTT against Olfr786 | z-score: inactive: -0.967
GAGUGCAUUCUUUUGGCAUTT against Olfr5 | z-score: inactive: -0.738

Following part

| Sequence | z-score |
| --- | --- |
| CGGAGUCAAAUUGUAUAAATT against 1810018L02Rik | inactive: -0.376 |
| GAGCUGAAGAAGUGCUCUUTT against Rarres2 | inactive: 0.774 |
| GAAGCUGUUGCUACUGGACTT against Tifp39 | inactive: 0.346 |
| GGCAGUACAACUGGUCUACTT against 0610040J01Rik | inactive: 0.0523 |
| CCGAAUGUGCCUUUAAGAATT against Sema4a | inactive: -0.388 |
| GCAGGCCUACCUUACCCUATT against Adam32 | inactive: -1.54 |
| CGCUCUAGGAAAACAAUGUTT against AV071179 | inactive: -2.02 |
| CCACACUGCAGUGUCAGAATT against Olfr490 | inactive: -0.574 |
| GCAUUUUGCUUACUUACUGTT against 9530046H09Rik | inactive: 1.63 |
| GGUUAAUGCCCGAUGAAGGTT against Gdap1 | inactive: -0.71 |
| GGUCACGAUGUAGCACGCUTT against Gm169 | inactive: 2.01 |
| GGUAGUGUGAUCAAGACACTT against Spred2 | inactive: 1.27 |
| GGUGCAGUCCUCCAGAAUUTT against 3110056O03Rik | inactive: -1.12 |
| GGGACCUGAUCAUAAACUATT against 5830442J12Rik | inactive: -0.445 |
| CCCUUUAAUACAUACAGUUTT against Mesp2 | inactive: 1.05 |
| GGACAGGAAAAUACUCAGATT against Cml5 | inactive: -0.229 |
| CCACUUUUGUAAUGGAAGCTT against BC024997 | inactive: 0.517 |
| GGCCUAUGUCAGCACUUUATT against Eif3s5 | inactive: -2.81 |
| GCGCAAAGAAGUGACUUCATT against Txln | inactive: -2.78 |
| GGAGUCUUAAAAGCAAAGATT against Serpinb11 | inactive: -0.108 |
| GGAGCUCAAGGAAGAGUACTT against 2600017H08Rik | inactive: -1.99 |
| CGGAUAUUUGGCAUGGUCCTT against Slc5a4b | inactive: 0.735 |
| GGCAACAACACAUUCAGAGTT against Enah | inactive: -0.601 |
| GGAUGUUAUUCGCCACGCGTT against Znf335 | inactive: 2.38 |
| GGGAUUUGCUGUGAGAAUUTT against Fin15 | inactive: -0.463 |
| GGGCGAUUAUCUGUGGAAATT against Syt14l | inactive: -0.0776 |

2 entries picked at random from those above:

| Sequence | z-score |
| --- | --- |
| GGCAACAACACAUUCAGAGTT against Enah | inactive: -0.601 |
| GCGCAAAGAAGUGACUUCATT against Txln | inactive: -2.78 |

Next part:

| Sequence | z-score |
| --- | --- |
| CGUGUGUUACUUCUCAGACTT against Crtam | inactive: 0.911 |
| GGAAGAGAAUGAAAUGUACTT against 6530403A03Rik | inactive: 1.8 |
| GGUCCUCAAGCUCAUGGAUTT against Lzf | inactive: 1.72 |
| GGGAGAAAUUCUGUAUUCATT against Aldh5a1 | inactive: 3.07 |
| GCUCUAUCGAAUCAUAUUATT against Pdzk6 | inactive: -1.36 |
| GCCCAGUGAUUGGAAACGATT against 1810061M12Rik | inactive: 0.132 |
| GGAUACAUUAAUUGUUUGGTT against AW011752 | inactive: 0.68 |
| GCAAGUGAGUUAGCAGUCATT against Atp2c1 | inactive: -0.615 |
| GGAAAAUCCCUGUGUCCGATT against 4930451F05Rik | inactive: 2.07 |
| GGAGCUGUCUCUACGAAACTT against Myoz3 | inactive: -0.55 |
| GGAUUUGUGUCCAUCGUGCTT against Olfr66 | inactive: -0.179 |
| GGUCAUUUCCUUCGCUGGATT against Olfr739 | inactive: 2 |
| GGUUCCUACGCUUCAUUCCTT against Cntnap4 | inactive: 0.19 |
| CCUUCUAGUGCAUCAGUGGTT against Olfr890 | inactive: 0.382 |
| GCGACUGAGUGACUAUGCUTT against Kcnn3 | inactive: 0.138 |
| GCCGAUGAAGCCUUAUUGCTT against Bfsp1 | inactive: 1.5 |
| GGAACCUCUCCUGAUCACCTT against BC026374 | inactive: -0.676 |
| GAUCUUGGUUAUUCUACAUTT against Olfr1047 | inactive: -1.09 |
| CCUGGACAACCAACACUUATT against Pex13 | inactive: 1.33 |
| GGCUAUGUAGAUGGUUUUGTT against B830017H08Rik | inactive: 1.72 |
| GGAUUUGGCCAACUCACCCTT against Acpp | active: 0.16 |
| GGCACAAAAGAAGAAGAUGTT against 0610039N19Rik | inactive: 0.834 |
| GGUGCAGAGGAUCUACUAATT against 2700055A20Rik | inactive: -2.6 |
| GGACCUACAGCAUGGUAACTT against Pex3 | inactive: -2.07 |
| CCAAUCAUGUGGAUAUUUATT against Syngr3 | inactive: 0.403 |
